# PubChem BioAssay AID1259354 (Paczesny and Yang Labs, IUPUI and University of Michigan, 2018)
# Chains of the proteins cited; added tags and fusions are not shown. Lines headed by an entry give the natural chain unless they say otherwise; changes in a name come on top.
# UniProt Q01638: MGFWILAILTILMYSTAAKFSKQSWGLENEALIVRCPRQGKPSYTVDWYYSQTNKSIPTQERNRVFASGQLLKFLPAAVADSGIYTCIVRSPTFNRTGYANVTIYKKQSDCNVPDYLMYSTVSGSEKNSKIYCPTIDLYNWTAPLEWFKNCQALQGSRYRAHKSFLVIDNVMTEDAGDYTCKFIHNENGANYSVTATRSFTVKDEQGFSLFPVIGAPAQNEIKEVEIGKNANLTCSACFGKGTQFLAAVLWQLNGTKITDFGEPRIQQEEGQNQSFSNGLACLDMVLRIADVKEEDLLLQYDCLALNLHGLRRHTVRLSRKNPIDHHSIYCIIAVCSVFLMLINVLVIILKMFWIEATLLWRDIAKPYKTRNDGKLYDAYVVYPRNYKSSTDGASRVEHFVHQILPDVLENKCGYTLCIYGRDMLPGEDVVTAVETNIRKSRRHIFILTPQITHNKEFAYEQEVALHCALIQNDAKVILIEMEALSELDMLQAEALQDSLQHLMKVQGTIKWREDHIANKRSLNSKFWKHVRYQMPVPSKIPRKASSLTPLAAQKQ
# Values joined by “and” are separate entries in the source; they are usually repeats but may differ in a detail not shown here. Equal values may be shown once. The whole screen tested about 78,000 compounds, of which about 1,800 (2.3%) were called active. The shares of active, inactive and inconclusive entries below differ from those in the screen. Rule as the data show it: active = inhibition above about 30%; inconclusive = mostly about 10% to 28%; inactive = weaker than that.
# Target: Interleukin-1 receptor-like 1 (Homo sapiens) (UniProt Q01638)
# Assay: blocks human ST2 binding to IL-33, primary screen, biochemical, AlphaLISA (AID 1259354)
# Settings: AlphaLISA ST2-Fc/biotin-IL-33 interaction, 1 h; at 17 µM, stronger effect = higher value
row,SMILES,inhibition
1,CCC(NC(=O)c1nn(C)c(=O)c2ccccc12)c1nc(C)c(C)s1 (stereo not drawn),inconclusive: 19%
2,CCN(CC)Cc1cnc2c(C(=O)N3CCC(=O)NCC3C)cnn2c1 (stereo not drawn),inconclusive: 11%
3,Cc1cc(C)n2nc3nc(N4CCCCC4)nc(-c4ccccc4)c3c2n1,inactive
4,Cc1ccccc1Cn1cc(SCC(=O)NCc2ccco2)c2ccccc21,inactive
5,O=C(CN1CCOCC1)Nc1nccs1,inactive
6,O=C(O)CCC(=O)N1N=C(c2ccccc2)CC1c1cc2cc3c(cc2nc1Cl)OCO3 (stereo not drawn),inconclusive: 16%
7,CCOC(=O)N1CCC(N2CCC3(CCNC(=O)CC3)CC2)CC1,inconclusive: 11%
8,Cc1ccc(S(=O)(=O)NC[C@H]2O[C@@H](CC(=O)N3CCOCC3)[C@H](O)[C@@H]2O)cc1,inconclusive: 13%
9,COc1ccc(N=C2SC(C(=O)O)CC(=O)N2Cc2ccc(F)cc2)cc1 (stereo not drawn),inconclusive: 10%
10,Cc1ccc(NC(=O)Nc2ccccc2Sc2c(C)c(C)nc3nc(-c4ccccc4)nn23)cc1F,inconclusive: 11%
11,CN(Cc1ccco1)C(=O)CN1C(=O)/C(=C\c2ccc(C(F)(F)F)cc2)Sc2ccccc21,active: 31%
12,CCN(Cc1nc(COC)no1)Cc1ccnc2ccccc12,inconclusive: 18%
13,Clc1ccc(-n2cccc2CN2CCCn3cncc3C2)nc1,inconclusive: 22%
14,Cc1ccccc1-n1ncc(C(C)NC(=O)CCn2cccn2)c1C (stereo not drawn),inactive
15,O=C1NC(=O)c2cc(Nc3ccccc3)c(Nc3ccccc3)cc21,inactive
16,CN1CC2(CCCN(C(=O)CCc3cc(Cl)no3)C2)OC1=O (stereo not drawn),inconclusive: 10%
17,COc1cccc2ccc(CN3CCN(Cc4ccsc4)C(CCO)C3)nc12 (stereo not drawn),inconclusive: 17%
18,Oc1oc(-c2ccc(Cl)cc2)nc1C=Nc1cccc(F)c1,active: 31%
19,CCN(CC)c1ccc(C=C2C(=O)OC(C)(C(C)(C)C)OC2=O)cc1 (stereo not drawn),active: 43%
20,O=C(NCCc1ccc(Cl)cc1)c1coc2nc3ccccc3nc12,inactive
21,Cc1ccnc(CC(C)N(C)C(=O)c2ccc3nccn3c2)c1 (stereo not drawn),inconclusive: 15%
22,CC(=O)Nc1ccc(S(=O)(=O)Nc2ccc3n(c2=O)C[C@H]2C[C@@H]3CN(C(=O)Cc3cccs3)C2)cc1,inactive
23,Cc1ccc(S(=O)(=O)c2ccc(C)cc2)cc1,inconclusive: 14%
24,CCOC(=O)C1(Cc2ccc(OC)cc2)CCN(C(=O)C2=CCCCC2)CC1,inconclusive: 23%

row,SMILES,inhibition
1,COc1ccc(C2CC(=O)N(CC(=O)c3ccccc3)c3ccccc3S2)cc1 (stereo not drawn),inconclusive: 11%
2,CC(C)C1N=C2c3ccccc3N=C(SCc3cc(=O)n4cc(Cl)ccc4n3)N2C1=O (stereo not drawn),inconclusive: 16%
3,O=C(Nc1nc(-c2cccs2)cs1)c1ccc(Br)cc1,inactive
4,Cc1nc2ccccc2c2c1C(=O)N(c1ccc(F)c(F)c1)C2=O,inconclusive: 14%
5,O=C(c1cccc(N2CCCC2=O)c1)N1C[C@@H]2C3CCC(CC3)[C@@H]2C1,inactive
6,O=C(CC1SC(=Nc2ccccc2)N(c2ccccc2)C1=O)Nc1ccc(F)cc1 (stereo not drawn),inconclusive: 11%
7,C=CCSC1=C(C#N)C(c2ccccc2C)C(C(=O)OCC)C(=O)N1 (stereo not drawn),inactive
8,O=C(c1cc(-c2ccc(Br)cc2)on1)N1CCCCCC1,inconclusive: 10%
9,CCNC(=O)c1cn(CC(C)C)cc(C(=O)NCC(C)c2ccccc2)c1=O (stereo not drawn),inactive
10,CCn1nc(C(C)C)cc1C(=O)N1CCn2c(C(N)=O)cnc2C1,inactive
11,CC(C)CC(=O)OCC1=CCCC2C1(C)CCC(C)C2(C)CCC(C)CC(=O)O (stereo not drawn),inactive
12,O=C1CC(c2ccc(Cl)cc2)CC2=C1C(c1cccc(F)c1)Nc1ccccc1N2 (stereo not drawn),inconclusive: 20%
13,COC(=O)C1=C(C)Nc2ncnn2C1c1ccccc1 (stereo not drawn),inconclusive: 16%
14,Cc1ccc(CN(C)Cc2cn(Cc3ccccc3)nc2-c2ccc3c(c2)OCO3)o1,inconclusive: 25%
15,Cc1c(Cl)cccc1N=Cc1ccc([N+](=O)[O-])cc1,inconclusive: 21%
16,COc1cc(/C=C2\SC(c3ccc(C)cc3)=NC2=O)ccc1O,active: 62%
17,Cc1cc(=O)oc2cc(OC(=O)COc3ccc(Br)cc3)ccc12,inactive
18,COC(=O)COc1ccc(S(=O)(=O)Nc2ccc3c(c2)OCCO3)cc1,inactive
19,CCc1nc(SCC(=O)N(C)Cc2nc3ccc(Cl)cc3[nH]2)n[nH]1,inconclusive: 11%
20,CC(=O)c1cccc(-n2c(CCc3ccccc3)n[nH]c2=O)c1,inconclusive: 10%
21,CC(C)NC(=O)N1CCN(S(=O)(=O)c2ccccc2)[C@@H](C(=O)N[C@H](Cc2c[nH]c3ccccc23)C(N)=O)C1,inconclusive: 10%
22,CC(C)=CCN1CCN(Cc2c(O)ccc3ccccc23)CC1CCO (stereo not drawn),inconclusive: 12%
23,CCCCn1c(Br)nc2c1c(=O)[nH]c(=O)n2C,inconclusive: 14%
24,Cc1ccc(NCN2C(=O)c3ccc([N+](=O)[O-])cc3C2=O)c([N+](=O)[O-])c1,inconclusive: 14%

row,SMILES,inhibition
1,CN1CCC2(CC1)CN(C(=O)c1n[nH]c3ccccc13)CCCN2C,inactive
2,COc1ccc(OCC(=O)Nc2ccc(OCC(N)=O)cc2)cc1,inconclusive: 14%
3,CC1=C(C(=O)Nc2ccccn2)C(c2cccc(Cl)c2Cl)C2=C(CC(C)(C)CC2=O)N1 (stereo not drawn),inactive
4,Cc1cccn2c(=O)c3cc(C(=O)N4COCC4(C)C)n(C)c3nc12,inconclusive: 12%
5,COc1ccc(NC(=O)CCCOc2ccc(Cl)cc2Cl)c([N+](=O)[O-])c1,inconclusive: 25%
6,COc1ccc(CNC(=O)NCCc2nc3cccnc3n2Cc2ccccc2)cc1,active: 63%
7,O=C1Nc2ccccc2/C1=C/C(=O)c1ccc(Cl)cc1,active: 32%
8,CC(C)Cc1nc2ccccc2n1C(C)C,inactive
9,Cc1cc(C)nc(NC(=O)Cc2ccc(Br)cc2)n1,inconclusive: 11%
10,CC(C)n1c(=N)c(C(=O)NC2CCCC2)cc2c(=O)n3ccccc3nc21,inconclusive: 13%
11,O=[N+]([O-])c1cc(C=Nc2ccc(-c3nc4ccccc4o3)cc2)cc([N+](=O)[O-])c1,inactive
12,C=CCc1ccccc1OCC(O)CN1CCN(c2ccc(C)cc2)CC1 (stereo not drawn),inconclusive: 10%
13,O=C(CSC1=NC(=O)C(c2ccccc2)C(=O)N1)Nc1ncccn1 (stereo not drawn),inactive
14,COc1ccc(-n2c(CN3CCN(S(=O)(=O)c4ccc(F)c(Cl)c4)CC3)nc3cccnc32)cc1,inactive
15,Cc1[nH]n(-c2ccccc2)c(=O)c1C(N)=NC(=O)c1ccccc1,inconclusive: 16%
16,COc1cc2c(c3oc(-c4ccccc4)cc(=O)c13)C=CC(C)(C)O2,inconclusive: 11%
17,COC(=O)C1C(=O)C2=C(CC1C)NC(C)=C(C(=O)OC1CCCC1)C2c1ccc(O)cc1 (stereo not drawn),inconclusive: 13%
18,CCCCC(=O)Nc1ccc(Nc2nc(C)cc(N(C)C)n2)cc1,inconclusive: 16%
19,O=C(COc1ccccc1O)N1CCc2c(ncnc2N2CCOCC2)C1,inconclusive: 16%
20,COc1ccc(N2CC(O)=C(c3nc4ccccc4s3)C2=N)cc1,inconclusive: 23%
21,CC1(C)CC(=O)C2=C(C1)Nc1nc(SCc3ccccc3Cl)nn1C2c1ccncc1 (stereo not drawn),active: 42% and inconclusive: 17%
22,CCc1cc(NCC2(O)CCCCC2)nc(N2CCOCC2)n1,inconclusive: 23%
23,CCn1c(C2CCN(C(=O)c3ccc4cccnc4n3)CC2)nn(C)c1=O,inconclusive: 14%
24,CCOC(=O)N1CCN(C2CCCN(C(=O)c3cc(C)nc(C)n3)C2)CC1 (stereo not drawn),inactive

# Three structures out of the list, sorted by SMILES length, rising:
row,SMILES,inhibition
18,CCCCC(=O)Nc1ccc(Nc2nc(C)cc(N(C)C)n2)cc1,inconclusive: 16%
4,Cc1cccn2c(=O)c3cc(C(=O)N4COCC4(C)C)n(C)c3nc12,inconclusive: 12%
16,COc1cc2c(c3oc(-c4ccccc4)cc(=O)c13)C=CC(C)(C)O2,inconclusive: 11%

# (next part)

row,SMILES,inhibition
1,O=C(COc1ccccc1Cl)Nc1cccc(NC(=O)c2ccccc2)c1,inconclusive: 21%
2,Cc1ccc2c(-c3cc4c(n(CC5CC5)c3=O)CCN(C(=O)c3cncs3)C4)cccc2n1,inactive
3,CCOC(=O)c1cnc2c(C)c(Cl)ccc2c1Nc1cccc(C(C)=O)c1,inconclusive: 17%
4,CC(C)CSc1oc(-c2ccco2)nc1S(=O)(=O)c1ccc(Cl)cc1,inactive
5,COc1ccccc1N1CCN(CC(=O)N2c3ccccc3CCc3ccccc32)CC1,inconclusive: 17%
6,CCOC(=O)C1C(=O)C=C(c2ccc(OC)cc2)CC1c1ccc(F)cc1 (stereo not drawn),inconclusive: 17%
7,CC1CCN(CC[C@H]2CCCN2S(=O)(=O)c2cccc(O)c2)CC1,inconclusive: 12%
8,COC(=O)c1cc2c(s1)CN(C1CCCc3ccccc31)C2 (stereo not drawn),inconclusive: 13%
9,O=S(=O)(Nc1ccc(Oc2ccccc2)cc1)c1ccc(Cl)cc1,inactive
10,Cc1cc2nc(Sc3c([N+](=O)[O-])ncn3C)[nH]c2cc1C,inconclusive: 15%
11,Cc1ccc(-c2csc(N)n2)cc1,inconclusive: 10%
12,Cn1nc(C2CC2)c2c1NC(=O)CC2c1ccc(CN2CCCCC2)s1 (stereo not drawn),inconclusive: 19%
13,COc1ccccc1-c1cccc(C(=O)NCCc2cnc[nH]2)c1,inconclusive: 23%
14,COCC(=O)NC[C@H]1O[C@@H](CC(=O)NCc2ccc(F)cc2)[C@H](O)[C@@H]1O,inconclusive: 12%
15,CC1=CC(=NS(=O)(=O)c2cccc([N+](=O)[O-])c2)C=CC1=O,inactive
16,COc1ccc(C(=O)Nc2ccc(-c3nc4ncccc4o3)cc2)cc1,inconclusive: 21%
17,O=C1N=c2ccccc2=C1c1c(O)n(-c2cccc(Br)c2)[nH]c1=O,inconclusive: 19%
18,Cc1c(C(=O)NCc2cccnc2)oc2ccc(S(=O)(=O)N3CCOCC3)cc12,inactive
19,COc1ccccc1-c1nc(C(N)=O)c2c(n1)n(-c1ccc(F)cc1)c(=O)n2C,inactive
20,COc1ccc(/C=c2\sc3nc(-c4ccc(OC(C)C)cc4)nn3c2=O)c(OC)c1,inactive
21,Cc1ccc2nc3c(c(Nc4ccc(N5CCOCC5)cc4)c2c1)CCC3,inconclusive: 24% and inconclusive: 20%

# Entries shown so far with a COOH group, in the order listed:
row,SMILES,inhibition
6,O=C(O)CCC(=O)N1N=C(c2ccccc2)CC1c1cc2cc3c(cc2nc1Cl)OCO3 (stereo not drawn),inconclusive: 16%
9,COc1ccc(N=C2SC(C(=O)O)CC(=O)N2Cc2ccc(F)cc2)cc1 (stereo not drawn),inconclusive: 10%
11,CC(C)CC(=O)OCC1=CCCC2C1(C)CCC(C)C2(C)CCC(C)CC(=O)O (stereo not drawn),inactive
